Measured values published in patent publication US8013159B2, “Quinoline derivatives as EP4 antagonists” (Merck Canada Inc., priority 2005, dated 2011).
Some entries share one result that the patent states for a list of compounds.

Amino acid sequences for entries named in this document (tags omitted). A change or cut given only in a name is not applied to a line headed by its entry.
UniProt P35408: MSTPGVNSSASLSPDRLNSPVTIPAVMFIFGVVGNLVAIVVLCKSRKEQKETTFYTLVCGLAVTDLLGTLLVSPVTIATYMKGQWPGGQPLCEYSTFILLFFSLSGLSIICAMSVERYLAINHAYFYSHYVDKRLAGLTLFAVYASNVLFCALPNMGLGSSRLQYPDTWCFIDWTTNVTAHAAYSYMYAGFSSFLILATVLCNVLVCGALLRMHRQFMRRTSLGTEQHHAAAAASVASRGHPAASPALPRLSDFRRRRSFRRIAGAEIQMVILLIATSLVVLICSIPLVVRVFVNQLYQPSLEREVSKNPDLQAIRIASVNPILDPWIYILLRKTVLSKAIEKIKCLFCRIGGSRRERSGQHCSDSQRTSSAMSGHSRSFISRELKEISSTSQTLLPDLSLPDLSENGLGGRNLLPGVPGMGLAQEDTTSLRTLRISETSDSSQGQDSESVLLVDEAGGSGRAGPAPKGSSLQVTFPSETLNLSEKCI

Target: T1, EP4 receptor (Homo sapiens, UniProt P35408)
T1 construct: expressed in transfected cells; membranes prepared by differential centrifugation
Test: Prostanoid receptor binding assay (EP4), membranes of transfected HEK 293(ebna) cells
Experimental: Prostanoid receptor cDNAs corresponding to full length coding sequences are subcloned into the appropriate sites of mammalian expression vectors and transfected into HEK 293(ebna) cells. HEK 293(ebna) cells expressing the individual cDNAs are grown under selection and individual colonies are isolated after 2-3 weeks of growth using the cloning ring method and subsequently expanded into clonal cell lines.
Transfected HEK 293(ebna) cells are maintained in culture, harvested and membranes are prepared by differential centrifugation, following lysis of the cells in the presence of protease inhibitors, for use in receptor binding assays. Prostanoid receptor binding assays (for DP1, DP2 (CRTH2), EP 1, EP2, EP3-11, EP4, FP, IP, and TP) are performed in 10 mM MES/KOH (pH 6.0) (EPs, FP and TP) or 10 mM HEPES/KOH (pH 7.4) (DPs and IP), containing 1 mM EDTA, 2.5-30 mM divalent cation and the appropriate radioligand. Synthetic compounds are added in dimethylsulfoxide which is kept constant at 1% (v/v) in all incubations. The reaction is initiated by addition of membrane protein. Non-specific binding is determined in the presence of 10 μM of the corresponding non-radioactive prostanoid. Incubations are conducted for 60-90 min at room temperature or 30° C. and terminated by rapid filtration. Specific binding is calculated by subtracting non specific binding from total binding. The residual specific binding at each ligand concentration is calculated and expressed as a function of ligand concentration in order to construct sigmoidal concentration-response curves. The binding affinity of the compounds is determined by calculating the equilibrium inhibition constant (Ki) from the equation Ki=InPt/1+[radioligand]/Kd where Kd is the equilibrium dissociation constant for the radioligand:receptor interaction and InPt is the inflection point of the dose-response curves.

Row | Structure (SMILES) | IC50 [nM]
1 | Cc1cc(CS(=O)(=O)NC(=O)C(C)c2ccccn2)ccc1N1Cc2c(c(OCC(F)(F)F)c3cccnc3c2OCC(F)(F)F)C1=O (stereo not drawn) [Example 46, N-({3-methyl-4-[6-oxo-5,9-bis(2,2,2-trifluoroethoxy)-6,8-dihydro-7H-pyrrolo[3,4-g]quinolin-7-yl]benzyl}sulfonyl)-2-pyridin-2-ylpropanamide] | < 100
2 | CCOc1c2c(c(OCC)c3ncccc13)CN(c1ccc(CS(=O)(=O)NC(=O)C3(c4ccccc4OC)CC3)cc1Br)C2=O [Example 61, N-{[3-bromo-4-(5,9-diethoxy-6-oxo-6,8-dihydro-7H-pyrrolo[3,4-g]quinolin-7-yl)benzyl]sulfonyl}-1-(2-methoxyphenyl)cyclopropane-carboxamide] | < 100
3 | CCOc1c2c(c(OCC)c3ncccc13)CN(c1ccc(CS(=O)(=O)NC(=O)C3CCc4ccccc43)cc1C)C2=O (stereo not drawn) [Example 36, N-{[4-(5,9-diethoxy-6-oxo-6,8-dihydro-7H-pyrrolo[3,4-g]quinolin-7-yl)-3-methylbenzyl]sulfonyl}indane-1-carboxamide] | < 100
4 | CCOc1c2c(c(OCC)c3ncccc13)CN(c1ccc(CS(=O)(=O)N(C)C(=O)Cc3ccccc3OC)cc1C)C2=O [Example 54, N-{[4-(5,9-diethoxy-6-oxo-6,8-dihydro-7H-pyrrolo[3,4-g]quinolin-7-yl)-3-methylbenzyl]sulfonyl}-2-(2-methoxyphenyl)-N-methylacetamide] | < 100
5 | CCOc1c2c(c(OCC)c3ncccc13)CN(c1ccc(CS(=O)(=O)NC(=O)C(C)c3ccccc3)cc1C)C2=O (stereo not drawn) [Example 6, N-{[4-(5,9-diethoxy-6-oxo-6,8-dihydro-7H-pyrrolo[3,4-g]quinolin-7-yl)-3-methylbenzyl]sulfonyl}-2-phenylpropanamide] | < 100
6 | CCOc1c2c(c(OCC)c3ncccc13)CN(c1ccc(CS(=O)(=O)NC(=O)Cc3c(C)cc(C)cc3C)cc1C)C2=O [Example 38, N-{[4-(5,9-diethoxy-6-oxo-6,8-dihydro-7H-pyrrolo[3,4-g]quinolin-7-yl)-3-methylbenzyl]sulfonyl}-2-mesitylacetamide] | < 100
7 | COc1ccccc1C1(C(=O)NS(=O)(=O)Cc2ccc(N3Cc4c(c(OCC(F)(F)F)c5cccnc5c4OCC(F)(F)F)C3=O)c(C)c2)CC1 [Example 52, 1-(2-methoxyphenyl)-N-({3-methyl-4-[6-oxo-5,9-bis(2,2,2-trifluoroethoxy)-6,8-dihydro-7H-pyrrolo[3,4-g]quinolin-7-yl]benzyl}sulfonyl)cyclopropane-carboxamide] | < 100
8 | CCOc1c2c(c(OCC)c3ncccc13)CN(c1ccc(CS(=O)(=O)NC(=O)Cc3cc(Br)ccc3OC)cc1C)C2=O [Example 18, 2-(5-bromo-2-methoxyphenyl)-N-{[4-(5,9-diethoxy-6-oxo-6,8-dihydro-7H-pyrrolo[3,4-g]quinolin-7-yl)-3-methylbenzyl]sulfonyl} acetamide] | < 100
9 | CCOc1c2c(c(OCC)c3ncccc13)CN(c1ccc(CS(=O)(=O)NC(=O)C(C)c3ccccn3)cc1C)C2=O (stereo not drawn) [Example 45, N-{[4-(5,9-diethoxy-6-oxo-6,8-dihydro-7H-pyrrolo[3,4-g]quinolin-7-yl)-3-methylbenzyl]sulfonyl}-2-pyridin-2-ylpropanamide] | < 100
10 | COc1ccc(OC)c(CC(=O)NS(=O)(=O)Cc2ccc(N3Cc4c(c(OCC(F)(F)F)c5cccnc5c4OCC(F)(F)F)C3=O)c(C)c2)c1 [Example 73, 2-(2,5-dimethoxyphenyl)-N-({3-methyl-4-[6-oxo-5,9-bis(2,2,2-trifluoroethoxy)-6,8-dihydro-7H-pyrrolo[3,4-g]quinolin-7-yl]benzyl}sulfonyl)acetamide] | < 100
11 | CCOc1c2c(c(OCC)c3ncccc13)CN(c1ccc(CS(=O)(=O)NC(=O)Cc3cccc4ccccc34)cc1C)C2=O [Example 19, N-{[4-(5,9-diethoxy-6-oxo-6,8-dihydro-7H-pyrrolo[3,4-g]quinolin-7-yl)-3-methylbenzyl]sulfonyl}-2-(1-naphthyl)acetamide] | < 100
12 | COc1ccc(Br)cc1C1(C(=O)NS(=O)(=O)Cc2ccc(N3Cc4c(c(OCC(F)(F)F)c5cccnc5c4OCC(F)(F)F)C3=O)c(C)c2)CC1 [Example 78, 1-(5-bromo-2-methoxyphenyl)-N-({3-methyl-4-[6-oxo-5,9-bis(2,2,2-trifluoroethoxy)-6,8-dihydro-7H-pyrrolo[3,4-g]quinolin-7-yl]benzyl}sulfonyl)cyclopropane-carboxamide] | < 100
13 | Cc1cc(CS(=O)(=O)NC(=O)Cc2ccccn2)ccc1N1Cc2c(c(OCC(F)(F)F)c3cccnc3c2OCC(F)(F)F)C1=O [Example 43, N-({3-methyl-4-[6-oxo-5,9-bis(2,2,2-trifluoroethoxy)-6,8-dihydro-7H-pyrrolo[3,4-g]quinolin-7-yl]benzyl}sulfonyl)-2-pyridin-2-ylacetamide] | < 100
14 | CCOc1c2c(c(OCC)c3ncccc13)CN(c1ccc(CS(=O)(=O)NC(=O)Cc3ccccc3)cc1)C2=O [Example 3, N-{[4-(5,9-diethoxy-6-oxo-6,8-dihydro-7H-pyrrolo[3,4-g]quinolin-7-yl)benzyl]sulfonyl}-2-phenylacetamide] | < 100
15 | Cc1cc(CS(=O)(=O)NC(=O)Cc2ccccc2Br)ccc1N1Cc2c(c(OCC(F)(F)F)c3cccnc3c2OCC(F)(F)F)C1=O [Example 70, 2-(2-bromophenyl)-N-({3-methyl-4-[6-oxo-5,9-bis(2,2,2-trifluoroethoxy)-6,8-dihydro-7H-pyrrolo[3,4-g]quinolin-7-yl]benzyl}sulfonyl)acetamide] | < 100
16 | CCOc1c2c(c(OCC)c3ncccc13)C(=O)N(c1ccc(CS(=O)(=O)NC(=O)Cc3ccccc3)cc1Br)C2=O [Example 14, N-{[3-bromo-4-(5,9-diethoxy-6,8-dioxo-6,8-dihydro-7H-pyrrolo[3,4-g]quinolin-7-yl)benzyl]sulfonyl}-2-phenylacetamide] | < 100
17 | CCOc1c2c(c(OCC)c3ncccc13)C(=O)N(c1ccc(CS(=O)(=O)NC(=O)Cc3ccccc3)cc1)C2 [Example 20, N-{[4-(5,9-diethoxy-8-oxo-6,8-dihydro-7H-pyrrolo[3,4-g]quinolin-7-yl)benzyl]sulfonyl}-2-phenylacetamide] | < 100
18 | COc1ccc(O)c(OC)c1C1(C(=O)NS(=O)(=O)Cc2ccc(N3Cc4c(c(OCC(F)(F)F)c5cccnc5c4OCC(F)(F)F)C3=O)c(C)c2)CC1 [Example 77, 1-(3-hydroxy-2,6-dimethoxyphenyl)-N-({3-methyl-4-[6-oxo-5,9-bis(2,2,2-trifluoroethoxy)-6,8-dihydro-7H-pyrrolo[3,4-g]quinolin-7-yl]benzyl}sulfonyl)cyclo-propane-carboxamide] | < 100
